Values from PubChem BioAssay AID1259254 (NCATS, 2017)
Aim: 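Finding genes that stop cells copying their DNA twice in one cycle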 (primary screen). Cell system: human HCT116 colorectal cancer cells. Reagent: single siRNA against human genes. Timing: 3 days. Measurement: 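Nuclei stained with Hoechst and imaged; cell-cycle phase assigned by DNA content; G2 share scaled per plate, non-targeting siRNA 0%, GMNN siRNA 100%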. Scale: G2 robust z-score and G2 cells, % of GMNN control: higher = more G2 cells, more excess DNA replication; raw share of cells in G2: higher = larger share of cells with G2 DNA content. Hit rule: 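Active siRNAs have a G2 robust z of 5 or more median absolute deviations over the median, which in these data means about 38% or higher of GMNN control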.
The whole screen tested about 59,000 reagents; shown is an unselected part. Of all reagents, about 1,550 (2.6%) got an active call. 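G2 share is only a proxy for re-replication; each gene was hit by three separate siRNAs, and active genes were retested.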 Raw values are not corrected between plates. The numbers tell different reagents against one gene apart. Not given: the amount of reagent.

The first 3 records as a preview:
Target gene	reagent no.	G2 robust z-score	G2 cells, % of GMNN control	raw share of cells in G2 (%)	Call
CPPED1	1	0.146	4	6.06	inactive
CPPED1	2	2.02	17.2	11.3	inactive
CPPED1	3	0.448	6.12	5.09	inactive

Main list, repeating the preview:
Target gene	reagent no.	G2 robust z-score	G2 cells, % of GMNN control	raw share of cells in G2 (%)	Call
CPPED1	1	0.146	4	6.06	inactive
CPPED1	2	2.02	17.2	11.3	inactive
CPPED1	3	0.448	6.12	5.09	inactive
KCNG3	1	-1.29	-6.11	3.06	inactive
KCNG3	2	2.03	17.3	10.6	inactive
KCNG3	3	0.331	5.3	6.44	inactive
DOCK8-AS1	1	1.44	13.1	8.28	inactive
DOCK8-AS1	2	1.33	12.4	7.1	inactive
DOCK8-AS1	3	0.43	5.99	4.66	inactive
PDE1C	1	-1.09	-4.67	2.9	inactive
PDE1C	2	-0.989	-3.99	2.3	inactive
PDE1C	3	2.42	20	11.3	inactive
CNOT10	1	0.205	4.41	6.07	inactive
CNOT10	2	1.35	12.5	9.35	inactive
CNOT10	3	0.648	7.52	5.93	inactive
SIM2	1	-0.891	-3.3	2.86	inactive
SIM2	2	-1.54	-7.86	1.85	inactive
SIM2	3	-0.486	-0.452	5.53	inactive
CCDC6	1	-0.0111	2.89	6.41	inactive
CCDC6	2	0.0687	3.45	5.26	inactive
CCDC6	3	0.876	9.13	6.58	inactive
VSIG10L	1	-0.542	-0.845	3.54	inactive
VSIG10L	2	-0.32	0.719	3.13	inactive
VSIG10L	3	-1.05	-4.44	1.52	inactive
PWWP3A	1	1.85	16	10.9	inactive
PWWP3A	2	1.77	15.4	7.84	inactive
PWWP3A	3	4.6	35.4	14.1	inactive
LOC642677	1	0.69	7.82	6.64	inactive
LOC642677	2	-0.377	0.318	3.54	inactive
LOC642677	3	-0.321	0.706	3.36	inactive
ANP32E	1	0.835	8.84	7.67	inactive
ANP32E	2	-0.802	-2.68	3.5	inactive
ANP32E	3	3.05	24.4	10.8	inactive
CYP4X1	1	0.668	7.67	7.51	inactive
CYP4X1	2	1.34	12.4	9.91	inactive
CYP4X1	3	-1.33	-6.37	2.92	inactive
KAT7	1	0.0735	3.48	5.06	inactive
KAT7	2	-0.514	-0.651	3.94	inactive
KAT7	3	-0.0659	2.5	7.37	inactive
ZMIZ1	1	0.609	7.25	6.86	inactive
ZMIZ1	2	-0.583	-1.13	3.95	inactive
ZMIZ1	3	-1.03	-4.31	3.86	inactive
MICB	1	0.0703	3.46	4.83	inactive
MICB	2	-0.236	1.31	5.46	inactive
MICB	3	0.267	4.84	4.87	inactive
MOGAT3	1	-0.482	-0.426	4.79	inactive
MOGAT3	2	-0.629	-1.46	3.75	inactive
MOGAT3	3	0.0617	3.4	7.37	inactive
